Results published in article doi:10.1101/841668.
These are yes or no findings as the source states them, for the method shown. For part of these data: In cells and extracts the contact can be indirect. Some results given as binding are weak or reduced against the parent protein; the word gives no strength.

Columns and labels:
[1] = target: p53 (53kDa tumor protein), endogenous (human (endogenous in U2OS, HCT116 p53+/+, MCF-7)) (UniProt P04637); test: FRET or BRET
p53-DsRed Ex = p53-DsRed Ex (UniProt P04637); test: FRET or BRET
[2] = target: p53 (53kDa tumor protein), endogenous (human (endogenous in U2OS, HCT116 p53+/+, MCF-7)) (UniProt P04637); test: native gel or EMSA

Row | Substance | binding [1] | binding (p53-DsRed Ex) | binding [2]
1 | EYFP-HIF-1β (from UniProt P27540 1-789) | binds | binds | 
2 | Hypoxia-inducible factor-1 beta (HIF-1β), endogenous (from UniProt P27540 1-789) |  |  | binds
